Columns and labels:
[1] = tested on: nude mice bearing SSTR2-expressing HT1080 tumors; assay type: in vivo, mouse; conditions: metformin 48 mg/kg iv co-injection vs radiotracer only, 24 h; tumor p=0.08
[2] = tested on: EphB4+ A375SM tumor-bearing nude mice; assay type: in vivo, mouse; conditions: metformin 48 mg/kg iv co-injection vs radiotracer only, 4 h

CN(C)C(=N)NC(=N)N.Cl [metformin, 1,1-Dimethylbiguanide hydrochloride]
Differences in radiotracer uptake in all other major organs and in the tumor [1]: not statistically significant | Effect on liver uptake of 68Ga-NOTA-c(TNYL-RAW) [2]: No difference
